Binding data for one substance are collected here from patent US20230266316A1.

Protein sequences, listed by entry. Tags and fused reporters are not part of them. Lines headed by an entry give the natural chain unless they say otherwise; changes in a name come on top. Chains listed by the source or under a name are the forms on record and can include a tag or linker.
Human SSTR4 (somatostatin receptor subtype 4) with C-terminal Myc-tag, expressed in CHO cells from pcDNA-SSTR4 (P31391, form named): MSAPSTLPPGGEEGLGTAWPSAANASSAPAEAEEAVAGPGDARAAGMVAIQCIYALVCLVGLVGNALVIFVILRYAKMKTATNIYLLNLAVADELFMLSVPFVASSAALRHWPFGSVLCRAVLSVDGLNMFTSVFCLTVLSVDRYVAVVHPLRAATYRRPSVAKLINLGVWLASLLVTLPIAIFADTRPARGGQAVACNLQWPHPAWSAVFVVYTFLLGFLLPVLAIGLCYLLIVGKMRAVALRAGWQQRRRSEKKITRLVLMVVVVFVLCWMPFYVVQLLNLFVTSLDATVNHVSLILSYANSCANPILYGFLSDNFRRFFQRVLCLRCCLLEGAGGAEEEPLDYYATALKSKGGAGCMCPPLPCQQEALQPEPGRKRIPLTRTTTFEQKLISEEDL
Human SSTR1 (somatostatin receptor subtype 1) with C-terminal Flag-tag, expressed in CHO cells from pcDNA-SSTR1 (P30872, form named): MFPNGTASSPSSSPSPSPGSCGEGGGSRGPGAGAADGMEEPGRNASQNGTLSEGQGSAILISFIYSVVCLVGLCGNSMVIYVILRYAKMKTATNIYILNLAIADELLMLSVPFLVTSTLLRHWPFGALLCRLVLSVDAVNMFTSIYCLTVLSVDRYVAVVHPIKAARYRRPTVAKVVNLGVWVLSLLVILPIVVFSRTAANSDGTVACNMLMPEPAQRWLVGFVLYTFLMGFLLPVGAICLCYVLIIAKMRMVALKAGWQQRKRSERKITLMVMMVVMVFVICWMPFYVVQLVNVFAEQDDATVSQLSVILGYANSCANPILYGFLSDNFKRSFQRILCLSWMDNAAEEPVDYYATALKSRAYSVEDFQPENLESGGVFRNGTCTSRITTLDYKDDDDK

These are yes or no findings as the source states them, for the method shown. For some assays here: In cells and extracts the contact can be indirect. Some binding calls cover weakened binding; strength is not graded here.

Assay [1] addresses Human SSTR4 (somatostatin receptor subtype 4) with C-terminal Myc-tag, expressed in CHO cells from pcDNA-SSTR4 (human) (UniProt P31391). The assay can be described thus: immunostaining (anti-FLAG and anti-Myc), confocal co-localization in co-transfected CHO cells.
Assay [2] has the same target. The assay can be described thus: proximity ligation assay (Duolink PLA; anti-FLAG and anti-Myc primary antibodies) in co-transfected CHO cells, confocal imaging.

As for “Human SSTR1 (somatostatin receptor subtype 1) with C-terminal Flag-tag, expressed in CHO cells from pcDNA-SSTR1 (from UniProt P30872 1-391)”, the binding entry in assay [1] and in assay [2] was “binds” throughout.
